Test results published in the supplement of paper PMC12067093, “Discovery and optimisation of a covalent ligand for TRIM25 and its application to targeted protein ubiquitination” (Chemical Science, 2025).
The other results are listed elsewhere or left out.

By UniProt entry, the sequences of proteins in these tests, tags left out. Where a name states a change or a piece, a line headed by the entry shows the natural chain unless it says otherwise.
UniProt Q8N531: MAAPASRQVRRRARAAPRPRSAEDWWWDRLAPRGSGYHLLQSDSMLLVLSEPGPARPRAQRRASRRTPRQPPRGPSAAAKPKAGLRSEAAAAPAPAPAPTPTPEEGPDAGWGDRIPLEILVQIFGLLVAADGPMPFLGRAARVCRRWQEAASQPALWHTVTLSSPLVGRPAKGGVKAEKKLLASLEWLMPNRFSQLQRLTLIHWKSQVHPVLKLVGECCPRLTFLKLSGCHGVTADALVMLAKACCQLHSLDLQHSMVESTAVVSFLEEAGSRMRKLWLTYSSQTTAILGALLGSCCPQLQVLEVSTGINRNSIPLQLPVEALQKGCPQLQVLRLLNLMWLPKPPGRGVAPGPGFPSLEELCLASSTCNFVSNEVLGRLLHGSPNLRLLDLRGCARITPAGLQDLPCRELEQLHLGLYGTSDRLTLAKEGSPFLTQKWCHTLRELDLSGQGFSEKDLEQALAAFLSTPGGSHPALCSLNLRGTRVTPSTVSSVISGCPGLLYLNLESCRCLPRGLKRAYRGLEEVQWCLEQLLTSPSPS
UniProt O15360: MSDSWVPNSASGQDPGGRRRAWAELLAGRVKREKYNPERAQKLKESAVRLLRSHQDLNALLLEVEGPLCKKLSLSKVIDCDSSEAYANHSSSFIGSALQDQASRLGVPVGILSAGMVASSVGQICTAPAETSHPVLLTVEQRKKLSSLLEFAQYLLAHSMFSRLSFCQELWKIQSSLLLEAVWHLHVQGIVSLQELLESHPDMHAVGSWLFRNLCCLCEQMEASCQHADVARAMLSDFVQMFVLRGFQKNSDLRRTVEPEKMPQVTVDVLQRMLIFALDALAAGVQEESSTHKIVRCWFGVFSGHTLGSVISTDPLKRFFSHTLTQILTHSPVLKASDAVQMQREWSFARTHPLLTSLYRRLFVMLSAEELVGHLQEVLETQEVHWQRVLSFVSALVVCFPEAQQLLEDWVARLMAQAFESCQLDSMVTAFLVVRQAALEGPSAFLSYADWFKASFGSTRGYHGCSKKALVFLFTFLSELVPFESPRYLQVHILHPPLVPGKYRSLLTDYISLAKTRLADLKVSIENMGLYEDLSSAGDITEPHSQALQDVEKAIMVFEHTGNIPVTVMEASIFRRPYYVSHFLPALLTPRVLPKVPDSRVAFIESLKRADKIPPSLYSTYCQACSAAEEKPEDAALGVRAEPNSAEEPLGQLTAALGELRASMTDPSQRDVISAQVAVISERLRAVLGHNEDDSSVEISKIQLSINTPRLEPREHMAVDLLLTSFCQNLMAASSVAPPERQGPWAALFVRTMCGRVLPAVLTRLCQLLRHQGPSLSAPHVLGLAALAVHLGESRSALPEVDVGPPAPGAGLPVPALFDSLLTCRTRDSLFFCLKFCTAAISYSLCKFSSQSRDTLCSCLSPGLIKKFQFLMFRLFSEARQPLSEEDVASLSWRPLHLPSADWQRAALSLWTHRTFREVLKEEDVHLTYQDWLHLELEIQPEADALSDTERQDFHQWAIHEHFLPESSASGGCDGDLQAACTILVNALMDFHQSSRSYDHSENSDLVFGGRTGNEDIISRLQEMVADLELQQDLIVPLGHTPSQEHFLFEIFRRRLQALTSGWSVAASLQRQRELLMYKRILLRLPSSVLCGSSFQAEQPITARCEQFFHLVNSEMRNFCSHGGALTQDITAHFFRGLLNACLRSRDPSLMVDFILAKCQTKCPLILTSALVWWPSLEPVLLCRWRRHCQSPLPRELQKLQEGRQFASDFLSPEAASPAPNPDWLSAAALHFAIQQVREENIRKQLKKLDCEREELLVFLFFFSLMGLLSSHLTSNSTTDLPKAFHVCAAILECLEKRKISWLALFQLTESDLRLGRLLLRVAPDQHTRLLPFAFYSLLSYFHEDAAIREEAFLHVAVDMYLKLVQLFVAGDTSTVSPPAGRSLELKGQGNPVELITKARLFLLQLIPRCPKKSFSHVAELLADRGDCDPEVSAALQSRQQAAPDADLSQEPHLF
UniProt Q9NYY8: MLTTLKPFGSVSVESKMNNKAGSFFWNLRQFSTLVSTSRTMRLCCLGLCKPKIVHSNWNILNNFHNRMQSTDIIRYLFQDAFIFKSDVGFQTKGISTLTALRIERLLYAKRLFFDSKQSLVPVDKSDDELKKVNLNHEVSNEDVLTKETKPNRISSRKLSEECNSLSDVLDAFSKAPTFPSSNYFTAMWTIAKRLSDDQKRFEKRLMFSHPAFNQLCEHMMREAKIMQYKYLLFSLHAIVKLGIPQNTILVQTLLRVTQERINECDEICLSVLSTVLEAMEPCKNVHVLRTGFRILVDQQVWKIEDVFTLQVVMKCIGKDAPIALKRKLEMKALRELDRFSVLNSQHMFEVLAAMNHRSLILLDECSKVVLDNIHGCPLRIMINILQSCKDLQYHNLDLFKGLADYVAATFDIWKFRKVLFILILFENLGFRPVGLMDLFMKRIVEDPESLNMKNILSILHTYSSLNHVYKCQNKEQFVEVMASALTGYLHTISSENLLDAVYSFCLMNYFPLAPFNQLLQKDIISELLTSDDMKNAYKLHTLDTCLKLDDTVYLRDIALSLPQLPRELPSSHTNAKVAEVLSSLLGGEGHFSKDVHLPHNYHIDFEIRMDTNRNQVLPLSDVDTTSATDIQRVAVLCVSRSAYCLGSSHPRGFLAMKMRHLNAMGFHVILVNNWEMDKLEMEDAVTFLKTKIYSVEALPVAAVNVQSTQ
UniProt P09467: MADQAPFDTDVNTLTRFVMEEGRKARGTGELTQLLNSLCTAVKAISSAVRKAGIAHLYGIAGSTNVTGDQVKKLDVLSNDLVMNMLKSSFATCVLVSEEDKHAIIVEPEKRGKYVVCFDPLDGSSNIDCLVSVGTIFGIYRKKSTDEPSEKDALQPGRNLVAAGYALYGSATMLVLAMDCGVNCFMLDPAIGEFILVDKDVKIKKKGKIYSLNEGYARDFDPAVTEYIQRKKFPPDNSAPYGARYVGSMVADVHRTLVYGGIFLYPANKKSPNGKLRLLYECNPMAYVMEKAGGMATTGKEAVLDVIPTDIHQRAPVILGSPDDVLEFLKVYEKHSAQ
UniProt Q7L8L6: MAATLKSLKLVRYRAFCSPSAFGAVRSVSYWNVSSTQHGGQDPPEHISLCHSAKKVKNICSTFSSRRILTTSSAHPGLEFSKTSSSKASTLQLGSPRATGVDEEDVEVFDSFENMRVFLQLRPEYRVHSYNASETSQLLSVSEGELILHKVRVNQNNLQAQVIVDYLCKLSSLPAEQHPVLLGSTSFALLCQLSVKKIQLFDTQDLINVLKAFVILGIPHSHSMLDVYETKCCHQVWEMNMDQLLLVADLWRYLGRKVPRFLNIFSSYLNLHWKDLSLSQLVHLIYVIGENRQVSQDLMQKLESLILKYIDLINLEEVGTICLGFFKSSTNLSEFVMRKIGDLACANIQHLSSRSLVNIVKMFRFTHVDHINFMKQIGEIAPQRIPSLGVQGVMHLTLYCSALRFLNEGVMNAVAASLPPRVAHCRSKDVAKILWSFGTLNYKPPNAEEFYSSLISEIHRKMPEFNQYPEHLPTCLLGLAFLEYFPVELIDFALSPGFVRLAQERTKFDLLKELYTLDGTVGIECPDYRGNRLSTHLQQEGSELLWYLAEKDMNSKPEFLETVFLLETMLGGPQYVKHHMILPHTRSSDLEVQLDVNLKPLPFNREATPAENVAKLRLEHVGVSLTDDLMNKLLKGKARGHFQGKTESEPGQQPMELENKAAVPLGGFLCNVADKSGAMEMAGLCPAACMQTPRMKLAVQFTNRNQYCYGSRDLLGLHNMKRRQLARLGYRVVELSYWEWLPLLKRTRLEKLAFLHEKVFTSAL
UniProt Q9NX38: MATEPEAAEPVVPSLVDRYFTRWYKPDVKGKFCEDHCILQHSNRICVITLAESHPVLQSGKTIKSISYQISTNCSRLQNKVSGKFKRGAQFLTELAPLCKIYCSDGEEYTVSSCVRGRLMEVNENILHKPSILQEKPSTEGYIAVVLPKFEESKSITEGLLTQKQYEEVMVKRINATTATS
UniProt Q9NSD9: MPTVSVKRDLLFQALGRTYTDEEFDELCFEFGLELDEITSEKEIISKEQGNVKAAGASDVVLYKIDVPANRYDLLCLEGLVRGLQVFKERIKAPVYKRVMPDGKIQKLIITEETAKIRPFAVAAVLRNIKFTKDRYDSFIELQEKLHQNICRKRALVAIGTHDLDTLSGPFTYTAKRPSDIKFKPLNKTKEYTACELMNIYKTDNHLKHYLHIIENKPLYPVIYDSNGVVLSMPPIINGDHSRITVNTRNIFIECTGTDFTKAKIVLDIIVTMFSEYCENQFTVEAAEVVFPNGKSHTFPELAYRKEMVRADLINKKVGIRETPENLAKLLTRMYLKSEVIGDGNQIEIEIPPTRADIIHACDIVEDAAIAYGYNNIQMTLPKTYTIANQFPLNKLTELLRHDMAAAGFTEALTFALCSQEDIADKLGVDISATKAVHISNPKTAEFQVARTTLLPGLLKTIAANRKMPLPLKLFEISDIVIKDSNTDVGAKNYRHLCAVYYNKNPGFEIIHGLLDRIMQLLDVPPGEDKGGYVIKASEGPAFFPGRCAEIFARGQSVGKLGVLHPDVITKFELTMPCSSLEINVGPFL
UniProt Q9BXW9: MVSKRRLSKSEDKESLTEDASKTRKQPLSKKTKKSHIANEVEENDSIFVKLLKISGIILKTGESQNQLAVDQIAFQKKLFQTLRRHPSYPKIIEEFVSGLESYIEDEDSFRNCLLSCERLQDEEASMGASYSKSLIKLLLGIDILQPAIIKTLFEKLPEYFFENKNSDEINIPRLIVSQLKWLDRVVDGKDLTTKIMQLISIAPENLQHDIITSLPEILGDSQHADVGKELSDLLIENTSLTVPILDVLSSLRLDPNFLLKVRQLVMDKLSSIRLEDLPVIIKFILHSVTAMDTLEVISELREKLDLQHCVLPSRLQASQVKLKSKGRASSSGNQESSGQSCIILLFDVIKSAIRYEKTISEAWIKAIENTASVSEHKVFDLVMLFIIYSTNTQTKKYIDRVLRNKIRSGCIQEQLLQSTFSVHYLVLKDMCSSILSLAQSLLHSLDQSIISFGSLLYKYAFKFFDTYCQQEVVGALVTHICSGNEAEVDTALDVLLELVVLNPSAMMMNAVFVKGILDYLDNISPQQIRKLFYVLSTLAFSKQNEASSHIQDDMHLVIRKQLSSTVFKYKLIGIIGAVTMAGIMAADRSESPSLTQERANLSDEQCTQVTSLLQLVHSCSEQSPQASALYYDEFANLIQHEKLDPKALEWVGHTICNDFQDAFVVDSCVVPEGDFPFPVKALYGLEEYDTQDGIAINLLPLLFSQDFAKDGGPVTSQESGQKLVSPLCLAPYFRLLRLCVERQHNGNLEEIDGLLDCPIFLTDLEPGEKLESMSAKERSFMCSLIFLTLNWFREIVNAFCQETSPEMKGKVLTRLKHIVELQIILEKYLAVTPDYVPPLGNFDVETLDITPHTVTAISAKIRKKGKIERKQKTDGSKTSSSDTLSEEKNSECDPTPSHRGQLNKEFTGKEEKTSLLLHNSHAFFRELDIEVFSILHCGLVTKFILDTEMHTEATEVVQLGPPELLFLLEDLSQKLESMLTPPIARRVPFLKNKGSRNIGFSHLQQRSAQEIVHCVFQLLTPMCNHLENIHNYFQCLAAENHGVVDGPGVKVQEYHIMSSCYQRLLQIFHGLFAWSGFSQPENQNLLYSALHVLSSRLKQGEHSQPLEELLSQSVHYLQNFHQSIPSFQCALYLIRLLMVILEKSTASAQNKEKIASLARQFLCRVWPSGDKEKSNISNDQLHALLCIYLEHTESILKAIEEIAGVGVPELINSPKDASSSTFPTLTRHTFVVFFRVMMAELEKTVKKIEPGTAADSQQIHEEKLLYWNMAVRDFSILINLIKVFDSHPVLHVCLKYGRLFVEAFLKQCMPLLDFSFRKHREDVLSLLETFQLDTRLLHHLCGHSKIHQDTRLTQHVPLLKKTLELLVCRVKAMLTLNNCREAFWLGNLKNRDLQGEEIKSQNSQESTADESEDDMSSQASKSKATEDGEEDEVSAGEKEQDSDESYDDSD
UniProt P39748, whole entry, looked up: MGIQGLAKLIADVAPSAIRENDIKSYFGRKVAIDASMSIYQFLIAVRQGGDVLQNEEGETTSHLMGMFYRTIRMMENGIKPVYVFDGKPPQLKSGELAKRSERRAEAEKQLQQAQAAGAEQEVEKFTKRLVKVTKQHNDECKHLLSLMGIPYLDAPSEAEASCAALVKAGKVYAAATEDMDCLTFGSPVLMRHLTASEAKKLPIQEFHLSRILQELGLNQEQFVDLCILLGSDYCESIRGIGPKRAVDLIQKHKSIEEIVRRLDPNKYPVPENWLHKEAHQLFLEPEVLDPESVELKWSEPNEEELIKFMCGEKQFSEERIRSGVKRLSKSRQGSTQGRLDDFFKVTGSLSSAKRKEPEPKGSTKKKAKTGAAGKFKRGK

Compound: Cc1cc(ccc1-c1ccccc1)C(=O)N1CCCN(CC1)C(=O)CCl [compound 10]
Test: probe-labelled cysteine peptide fold change vs DMSO (competition) (log2 fold change); higher = less target engagement (more negative = stronger competition)
Conditions: THP-1, incubation time: 4 h
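Note: competitive profiling in live THP-1 cells: cysteine peptides tagged with an iodoacetamide desthiobiotin (IA-DTB) probe, intensity after compound treatment relative to DMSO-treated cells.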

Target | probe-labelled cysteine peptide fold change (10 µM) | probe-labelled cysteine peptide fold change (50 µM)
FANCI_Q9NVI1_1025_EDALFCK (UniProt Q9NVI1) | -0.0799 | 0.0448
FBXL6_Q8N531_439_WCHTLR (UniProt Q8N531) | -0.202 | -0.706
FANCA_O15360_1120_NFCSHGGALTQDITAHFFR (UniProt O15360) | 0.00134 | -0.0214
FASTKD2_Q9NYY8_163_KLSEECNSLSDVLDAFSK (UniProt Q9NYY8) | -0.306 | -0.383
FBXO3_Q9UK99_136_EGAREEDLDAVEAQIGCK (UniProt Q9UK99) | -0.311 | -0.547
FBP1_P09467_39_GTGELTQLLNSLCTAVK (UniProt P09467) | 0.313 | 0.0646
FASN_P49327_1127_FCFTPHTEEGCLSER (UniProt P49327) | 0.025 | -0.0872
FASTKD2_Q9NYY8_546_LHTLDTCLK (UniProt Q9NYY8) | -0.0542 | 0.141
FBXL20_Q96IG2_364_HLGNGACAHDQLEVIELDNCPLITDASLEHLK (UniProt Q96IG2) | 0.00428 | -0.051
FASTKD5_Q7L8L6_708_NQYCYGSR (UniProt Q7L8L6) | -0.0857 | -0.144
FAM206A_Q9NX38_74_SISYQISTNCSR (UniProt Q9NX38) | -0.121 | -0.527
FBN2_P35556_2453_DIDECK (UniProt P35556) | 0.00718 | 0.0174
FARSB_Q9NSD9_76_YDLLCLEGLVR (UniProt Q9NSD9) | 0.165 | 0.21
FBN2_P35556_98_FHSYCCPGWK (UniProt P35556) | 0.221 | 0.209
FANCD2_Q9BXW9_310_LDLQHCVLPSR (UniProt Q9BXW9) | -0.173 | -0.32
FEN1_P39748_141_QHNDECK (UniProt P39748) | -0.000785 | -0.268

An excerpt taken from the entries so far, for reference:
Target | probe-labelled cysteine peptide fold change (10 µM) | probe-labelled cysteine peptide fold change (50 µM)
FBXL6_Q8N531_439_WCHTLR (UniProt Q8N531) | -0.202 | -0.706
FANCA_O15360_1120_NFCSHGGALTQDITAHFFR (UniProt O15360) | 0.00134 | -0.0214
FASTKD2_Q9NYY8_163_KLSEECNSLSDVLDAFSK (UniProt Q9NYY8) | -0.306 | -0.383
